Source: PubChem BioAssay AID1671190 (National Center for Advancing Translational Sciences (NCATS), 2021)
“And” between values parts separate entries of the source, which are not always exact repeats. Equal entries are not always repeated. The whole screen tested about 580,000 compounds, of which about 6,100 (1.1%) were called active. Inconclusive means that the source gave no clear call. Such entries were picked first, then a sample of the others. Calls follow the shape of the dose curve; as a rule, active = well fitted inhibition curve with a large enough effect; inconclusive = small, poorly fitted or top-dose-only effect, or another doubt; inactive = no such curve, though single readings can be large or run the other way. Potencies beside an inconclusive call are fits to weak or partial responses and may not hold up.

Protein sequences, listed by entry. Tags and fused reporters are not part of them. Lines headed by an entry give the natural chain unless they say otherwise; changes in a name come on top.
UniProt P18054: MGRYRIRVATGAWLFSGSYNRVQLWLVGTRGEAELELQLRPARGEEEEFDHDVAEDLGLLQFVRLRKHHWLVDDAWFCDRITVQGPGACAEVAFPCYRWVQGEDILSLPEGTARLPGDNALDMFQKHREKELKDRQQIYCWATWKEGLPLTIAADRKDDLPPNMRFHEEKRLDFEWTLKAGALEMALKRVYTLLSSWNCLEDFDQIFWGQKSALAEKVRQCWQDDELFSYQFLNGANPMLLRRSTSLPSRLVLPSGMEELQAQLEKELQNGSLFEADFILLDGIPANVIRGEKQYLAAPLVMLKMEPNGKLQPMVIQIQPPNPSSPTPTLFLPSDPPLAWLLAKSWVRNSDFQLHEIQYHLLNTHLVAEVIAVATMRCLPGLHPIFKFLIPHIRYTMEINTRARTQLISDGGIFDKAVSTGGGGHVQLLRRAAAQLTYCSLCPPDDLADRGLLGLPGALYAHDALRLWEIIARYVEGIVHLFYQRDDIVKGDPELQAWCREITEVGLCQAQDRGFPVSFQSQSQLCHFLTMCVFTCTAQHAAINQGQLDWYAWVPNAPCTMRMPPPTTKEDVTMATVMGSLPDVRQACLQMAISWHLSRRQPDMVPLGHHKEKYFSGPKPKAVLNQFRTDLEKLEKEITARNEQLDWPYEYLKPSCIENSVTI

target: Polyunsaturated fatty acid lipoxygenase ALOX12 (Homo sapiens) (UniProt P18054); assay: Primary qHTS assay for inhibitors of human arachidonate 12S-lipoxygenase (ALOX12): Round 2; settings: purified 12hLO, xylenol orange hydroperoxide absorbance; series mostly up to 108 µM
Procedure, shortened: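 Purified human 12hLO (150 nM final) in 25 mM Hepes, 0.01% Triton X-100, pH 7.0 was preincubated 15 min at room temperature with compound. Then 40 uM arachidonic acid was added, 30 min. Hydroperoxide was read by Fe-XO absorbance ratio 573/405 nm.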
Potency is read from the fitted curve at half-maximal effect.

Row | Compound | Potency
1 | CCOC(=O)C1CCN(C(=O)CCc2nc3sc4c(c3c(=O)[nH]2)CCCC4)CC1 | inconclusive: 7.94 µM [inhibitor, full curve, poor fit] and inconclusive: 70.8 µM [inhibitor, partial curve, poor fit]
2 | COc1cccc(-c2nc3cc(NC(=O)c4ccc(C)c([N+](=O)[O-])c4)ccc3o2)c1 | active: 44.7 µM
3 | CCCCC(=Nc1ccccc1OC)C1=C(O)CC(c2ccccc2)CC1=O (stereo not drawn) | inactive
4 | Cc1nn(-c2ccccc2)c2nc(-c3ccco3)cc(C(=O)O)c12 | inconclusive: 44.7 µM [inhibitor, partial curve, poor fit]
5 | C=CCn1c(=O)[nH]c2cc(C(=O)N3CCN(c4cc(C)ccc4C)CC3)ccc2c1=O | inactive
6 | O=C(O)c1ccc(C(c2c[nH]c3ccccc23)c2c[nH]c3ccccc23)cc1 | inconclusive: 25.1 µM [inhibitor, partial curve, poor fit]
7 | COc1ccccc1-c1cc(NC(C)=O)c2ncc(-c3ccc(F)cc3)n2c1 | active: 44.7 µM
8 | COC(=O)[C@H](Cc1ccc(OC)cc1)NC(=O)[C@@H]1CNCCN1C(C)=O | inactive
9 | O=c1cc(O)nc(SC23CC4CC(CC(C4)C2)C3)[nH]1 | inconclusive: 31.6 µM [inhibitor, partial curve]
10 | O=C(Cn1nnc(-c2ccccc2Cl)n1)NCc1ccc2c(c1)OCO2 | inconclusive: 28.2 µM [inhibitor, partial curve, poor fit]
11 | CCCCc1nc(NCCN2CCOCC2)c(C#N)c2c1COC(C)(C)C2 | inconclusive: 28.2 µM [inhibitor, partial curve, poor fit]
12 | O=C(OCC(=O)N1CCCC1=O)c1ncc(Cl)c(Cl)c1Cl | inconclusive: 39.8 µM [inhibitor, partial curve, poor fit]
13 | Cc1cc2cc(CNC(=S)NC3CCCCC3)ccc2[nH]1 | inconclusive: 44.7 µM [inhibitor, partial curve, poor fit]
14 | CC(=O)Oc1ccccc1N(C(C)=O)S(=O)(=O)c1ccc2ccccc2c1 | inactive
15 | O=S(=O)(c1ccc(Cl)c(NC(=S)Nc2cccc(O)c2)c1)N1CCOCC1 | inconclusive: 100 µM [inhibitor, partial curve, poor fit]
16 | OC(CC#CCN1CCOCC1)(c1ccccc1)C1CCCC1 (stereo not drawn) | inconclusive: 44.7 µM [inhibitor, partial curve, poor fit]
17 | COc1ccc(NCC(=O)Nc2ccc(C#N)cc2)cc1Cl | inconclusive: 50.1 µM [inhibitor, partial curve, poor fit]
18 | Cc1ccc(C2C3=C(CC(C)(C)CC3=O)Nc3c2c(=O)[nH]c(=O)n3Cc2ccccc2)cc1 (stereo not drawn) | inconclusive: 56.2 µM [inhibitor, partial curve, poor fit]
19 | CCn1ccnc1CN1CCc2c([nH]c3ccccc23)C1C1CCCCC1 (stereo not drawn) | inactive
20 | COc1ccc(-c2ccnc(N[C@H]3CO[C@H]4[C@@H]3OC[C@H]4OC(=O)Nc3cccc4ccccc34)n2)cc1 | inactive
21 | O=C(CSCn1nnc2c(=O)[nH]c(Cc3ccc(F)cc3)nc21)Nc1ccc(F)c(Cl)c1 | inconclusive: 100 µM [inhibitor, partial curve, poor fit]

Row | Compound | Potency
22 | CN1CC(=O)N(C2CCCNC2)Cc2c(NCCc3ccccc3F)ncnc21 (stereo not drawn) | inconclusive: 14.1 µM [inhibitor, partial curve]
23 | O=C(NCCN1CCCC1)c1cnc2c(c1)N(C(=O)Cc1cccc(C(F)(F)F)c1)CCC2 | inactive
24 | Cc1oc(-c2cccc(Br)c2)nc1CN1CCC(C(=O)NCc2ccccc2)CC1 | inconclusive: 50.1 µM [inhibitor, partial curve, poor fit]
25 | O=C(Nc1ccccc1)C1C(c2ccccc2)C1(Cl)Cl (stereo not drawn) | inconclusive: 39.8 µM [inhibitor, partial curve, poor fit]
26 | CN(C)/C=C/C(=O)c1ccc([N+](=O)[O-])cc1 | inconclusive: 3.55 µM [inhibitor, full curve, poor fit]
27 | CCOC(=O)c1c(NCc2ccccc2)n[nH]c1C | inconclusive: 3.55 µM [inhibitor, full curve, poor fit]
28 | CCOC(=O)/C=C/SC(S/C=C/C(=O)OCC)=C(C#N)C(N)=O | inconclusive: 11.2 µM [inhibitor, full curve, poor fit]
29 | CC(C)N1C(=S)SC(C)(C)C1NO (stereo not drawn) | inconclusive: 70.8 µM [inhibitor, partial curve, poor fit]
30 | CCCn1nnc(NC(=S)NC(=O)Cc2ccccc2)n1 | inconclusive: 5.62 µM [inhibitor, partial curve, poor fit]
31 | c1cc2c(cc1CN1CCCCCC1)CNCCO2 | inactive
32 | Cc1ccc(NC(=O)C2=C(c3ccccc3)S(=O)(=O)CCS2(=O)=O)cc1 | inactive
33 | Oc1ccccc1/C=N/n1cnnc1 | inconclusive: 6.31 µM [inhibitor, partial curve, poor fit]
34 | CCOc1c(Cl)cc(C(=O)NCCN2CCCCC2)cc1Cl | inconclusive: 17.8 µM [inhibitor, full curve, poor fit]
35 | CC(C)Cn1nc(NC(=O)C(C)(C)C)c2cc3ccccc3nc21 | inconclusive: 39.8 µM [inhibitor, partial curve, poor fit]
36 | Cc1nn(C)c(C(=O)Nc2c(C)nn(Cc3c(F)c(F)c(F)c(F)c3F)c2C)c1Br | inactive
37 | CCc1ccc(NC(=O)N2CCN(c3nnc(C)c4c(C)n(-c5ccc(Cl)cc5)nc34)CC2)cc1 | inconclusive: 50.1 µM [inhibitor, partial curve, poor fit]
38 | CCCCn1c(N)c(N(CCC(C)C)C(=O)c2ccc(-c3ccc([N+](=O)[O-])cc3)o2)c(=O)[nH]c1=O | inconclusive: 100 µM [inhibitor, single point]
39 | Cc1sc(NC(=O)C2c3ccccc3Oc3ccccc32)c(C(=O)OC(C)C)c1C | inactive
40 | CCN(c1cccc(C)c1)S(=O)(=O)c1cc2c3c(c1)CCC(=O)N3CCC2 | inconclusive: 79.4 µM [inhibitor, single point]
41 | COc1ccc(-c2nc(CSCC(=O)NCCc3ccc(OC)c(OC)c3)c(C)o2)cc1 | inconclusive: 5.01 µM [inhibitor, full curve, poor fit]
42 | CCCCCn1c(SCCCC)nc2c1c(=O)[nH]c(=O)n2C | inconclusive: 70.8 µM [inhibitor, single point]

Row | Compound | Potency
43 | O=c1oc2ccccc2c(NCc2ccccc2)c1NS(=O)(=O)c1cccc(F)c1 | inconclusive: 158 µM [inhibitor, partial curve, poor fit]
44 | COc1ccc(Cl)cc1NC(=O)C1COc2ccccc2O1 (stereo not drawn) | inconclusive: 35.5 µM [inhibitor, partial curve, poor fit]
45 | COCCNc1ncnc2c1ncn2[C@H]1CN(CCc2ccccc2)C[C@@H](CO)O1 | inconclusive: 2.82 µM [inhibitor, full curve]
46 | Cc1ccc(Cc2c(-c3ccc(C#N)cc3)nc3c(C)cc(Br)cn23)cc1 | inconclusive: 28.2 µM [inhibitor, partial curve]
47 | O=C(CN1CCN(C2CCS(=O)(=O)C2)CC1)N1CC=C(c2ccccc2)CC1 (stereo not drawn) | inactive
48 | COc1cccc(CN2CC(C(=O)N3CCCCCCC3)CCC2=O)c1 (stereo not drawn) | inconclusive: 1 µM [inhibitor, full curve]
49 | COc1cccc(NC(=O)C(C)N2C(=O)c3ccccc3S2(=O)=O)c1 (stereo not drawn) | inconclusive: 100 µM [inhibitor, partial curve, poor fit]
50 | O=C(c1ccc(C(F)(F)F)cc1)N1CCC2(CC(c3cccc(C(F)(F)F)c3)=NO2)C1 (stereo not drawn) | inconclusive: 35.5 µM [inhibitor, partial curve, poor fit]
51 | COc1ccccc1/C=C/C=N/n1c(-c2ccco2)n[nH]c1=S | inconclusive: 4.47 µM [inhibitor, single point]
52 | COc1ccc(NC(=O)CN2CCN(Cc3ccc4c(c3)OCO4)CC2)cc1OC | inconclusive: 0.355 µM [inhibitor, full curve, poor fit]
53 | COc1cc(/C=C/c2nc3ccccc3s2)cc(OC)c1OC | inactive
54 | Cc1cc(N2CCCC2)nc2ccc(NC(=S)NCCCN3CCC(C)CC3)cc12 | inactive
55 | COCCNC(=O)c1ccc2c(c1)N(C)C(CC(=O)NCC(C)(C)C)CO2 (stereo not drawn) | inactive
56 | Cc1ccc(C(=O)Nc2ccccc2NS(=O)(=O)c2cccs2)cc1[N+](=O)[O-] | inactive
57 | O=C1C=C(NCC23CC4CC(CC(C4)C2)C3)C2(CCCCC2)O1 | inactive
58 | Cn1c(SCc2csc(-c3ccccc3)n2)nnc1C1CC1 | inactive
59 | CCCC(NC(=O)Cn1nnn(-c2ccccc2)c1=O)c1ccccc1 (stereo not drawn) | inactive
60 | CC(=O)c1ccc(NC(=O)N[C@H]2CO[C@H]3[C@@H]2OC[C@@H]3Nc2nccc(-c3ccco3)n2)cc1 | inconclusive: 39.8 µM [inhibitor, partial curve]
61 | O=C(C[C@H]1C[C@H](C(=O)N2CCCCC2)[C@@]2(CCc3ccccc3)c3[nH]c4cc(-c5ccco5)ccc4c3CCN2C1=O)NCCN1CCOCC1 | inconclusive: 70.8 µM [inhibitor, partial curve, poor fit]
62 | O=C(C[C@@H]1CCNC[C@@H]1Cc1cc(-c2ccc(F)cc2)on1)Nc1nccs1 | inconclusive: 39.8 µM [inhibitor, full curve, poor fit]
63 | O=[N+]([O-])c1cc2nc(O)c(O)nc2cc1[N+](=O)[O-] | inconclusive: 31.6 µM [inhibitor, single point]

Look-ups from above.
Potency, O=C1C=C(NCC23CC4CC(CC(C4)C2)C3)C2(CCCCC2)O1 reads inactive
Potency, COc1ccc(Cl)cc1NC(=O)C1COc2ccccc2O1 (stereo not drawn) reads inconclusive: 35.5 µM [inhibitor, partial curve, poor fit]

Of the compounds above, these have a CF3 group.
Row | Compound | Potency
23 | O=C(NCCN1CCCC1)c1cnc2c(c1)N(C(=O)Cc1cccc(C(F)(F)F)c1)CCC2 | inactive
50 | O=C(c1ccc(C(F)(F)F)cc1)N1CCC2(CC(c3cccc(C(F)(F)F)c3)=NO2)C1 (stereo not drawn) | inconclusive: 35.5 µM [inhibitor, partial curve, poor fit]
